{"source": "patent US20250381110A1", "about": "“SKIN CARE COMPOSITION AND METHOD OF USING THE SAME” (THE PROCTER & GAMBLE COMPANY, priority 2024, published 2025)", "tested_on": "p62-dependent mitophagy", "experiment": "Luciferase-p62 assay (Fluc-p62 clearance) in mouse embryonic fibroblasts", "assay_type": "cell-based", "experimental": "To identify p62-dependent materials which increase mitophagy, a Luciferase-p62 Assay was established. This method provides an approach to measure the ability of a material to modulate p62-dependent mitophagy by using an inducible firefly luciferase-p62 (Fluc-p62) reporter cell system. In this assay, p62 levels are driven by doxycycline treatment. After levels increased, expression of Fluc-p62 is turned off by removal of doxycycline, materials are then added and assessed for how they affect clearance of Fluc-p62 protein, which is proportionate to cellular mitophagy rates (Kelly et al.). The negative control is doxycycline induced Luc-p62 in the absence of compound or bioactive material treatment and in the presence of vehicle (DMSO).\nTest materials including bioactive materials were screened in mouse embryonic fibroblasts (MEFs, Harada et al.) expressing the TET-inducible p62-fluc construct as previously described (Brown et al.). […] Gibson assembly was used to insert firefly luciferase (Fluc) and p62 into the pCW57.1 backbone. Fluc, p62, and pCW57.1 were polymerase chain reaction (PCR) amplified using pfu polymerase (Life technologies) and Gibson assembly primers with 20 base pair (bp) overhangs. PCR products were separated by agarose gel electrophoreses, and fragments excised and purified before use in DNA assembly reaction with NEBuilder HiFi DNA Assembly kit (New England Biolabs). […] Subsequently, cells were treated with test materials for 48 hours in normal growth medium and analysed using ONE-Glo™+Tox Luciferase Reporter and Cell Viability Assay (Promega) by following the manufacturer's protocol.\nTest compositions and control compositions were prepared as described above in the Luciferase-p62 assay (Method 3) and tested accordingly. The compounds used in this example, as examples of bioactive materials, were from the APExBIO DiscoveryProbe™ Natural Product Library Plus (Houston, TX) and evaluated at equivalent concentrations (10 μM).\nData are additionally calculated as percentage of activity relative to rapamycin, a benchmark control compound tested in the same experiment.", "note": "Where a name gives a salt, the structure may show the parent alone.", "data": [{"smiles": "CCC[C@@H]1C[C@@H](C(=O)N[C@@H]([C@H]2O[C@H](SC)[C@H](O)[C@@H](O)[C@H]2O)[C@H](C)Cl)N(C)C1", "note": "[Clindamycin HCl]", "values": [{"measurement": "Mean Luminescence", "setting": "Luciferase-p62 assay, mouse embryonic fibroblasts (MEFs), compounds at 10 μM", "value": 803.11}, {"measurement": "% Activity over baseline", "setting": "percentage of Luciferase-p62 clearance relative to baseline (mean luminescence in the absence of doxycycline induction), MEFs, 10 μM", "value": 50.37, "unit": "%"}, {"measurement": "% Activity relative to Rapamycin", "setting": "percentage of activity relative to rapamycin tested in the same experiment at the same concentration, MEFs, 10 μM", "value": 90.75, "unit": "%"}]}]}
